Experimental data: PubChem BioAssay AID504808 (Drosophila RNAi Screening Center, 2011)
The deposit covers about 21,000 reagents; this is a random part of those with a known target gene and a result. In the full data, 18 (0.084%) were called active. 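Raw counts without plate normalisation, one of two replicates; the ratio scores behind the calls were not deposited.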 Entries without a mark were called inactive. Not stated in the record: the amount of reagent, the time to read-out.

- Assay: 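Chromatin factors that keep E2F targets switched off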 (primary screen)
- System: Drosophila S2 cells
- Reagents: long dsRNA against Drosophila genes
- Detection: 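Dual luciferase plate measurements; E2F-specific signal taken as firefly over Renilla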
- Reading the numbers: E2F firefly: higher = more E2F reporter activity; Renilla normaliser: higher = more normaliser reporter signal
- Hit rule: 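a knock-down counted as active when the firefly/Renilla E2F signal rose above 50%, a threshold chosen arbitrarily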

no.	Target gene	dsRNA	E2F firefly, rep 1	Renilla normaliser, rep 1
1	Gsc	DRSC00755	1.66e5	6035
2	CG3502	DRSC04381	79241	3620
3	CG15876	DRSC08484	1.10e5	4486
4	Mal-A3	DRSC07462	1.39e5	4876
5	E(spl)m5-HLH	DRSC16695	1.15e5	6330
6	Lcp3	DRSC07457	1.39e5	4673
7	Polr1B	DRSC00780	81497	3692
8	FASN2	DRSC00167	1.33e5	5951
9	FASN2	DRSC00610	86821	3956
10	mRpL46	DRSC08391	94582	4241
11	Hexim	DRSC15490	73089	3687
12	CG5455	DRSC15805	1922	940
13	CG12581	DRSC12206	75467	4124
14	CG12581	DRSC12207	1.39e5	6266
15	Coq5	DRSC19849	1.29e5	6076
16	BNIP3	DRSC11761	1.19e5	5451
17	Edem2	DRSC02877	92814	3791
18	CG7196 (retired record)	DRSC01000	1.33e5	6857
19	CG7196 (retired record)	DRSC03023	1.35e5	5429
20	dikar	DRSC09699	73964	3433
21	CG30338	DRSC05166	1.38e5	5239
22	Acp53Ea	DRSC05916	1.61e5	5413
23	CG3652	DRSC00624	1.55e5	4732
24	CG8891	DRSC03120	1.56e5	5236
25	CG5080	DRSC00677	78794	3627
26	Acn	DRSC02062	82587	3693
27	Atac2	DRSC02053	1.05e5	3616
28	moody	DRSC18515	1.17e5	6174
29	CG42553	DRSC08356	1.00e5	4115
30	CG31064	DRSC14756	1.16e5	5952
31	CG31064	DRSC15941	1.15e5	7293
32	CG31064	DRSC15942	1.17e5	6283
33	CG31064	DRSC15943	99693	6573
34	CR42545	DRSC03709	98118	4218
35	CG13248	DRSC11696	1.52e5	7733
36	CG30158	DRSC04956	1.43e5	5510
37	CG30158	DRSC04974	1.41e5	4582
38	CG30158	DRSC04975	1.56e5	4586
39	CG30158	DRSC05012	1.47e5	4941
40	PPO2	DRSC07102	3182	51
41	CG18294	DRSC09891	1.45e5	6406
42	be	DRSC19607	8206	768
43	be	DRSC19944	1.28e5	6488
44	be	DRSC19945	1.54e5	6611
45	HmgD	DRSC04619	73854	3592
46	CG12288	DRSC02155	1.01e5	4321
47	CG31493	DRSC12583	73944	3950
48	Nup58	DRSC16235	1.34e5	6393
49	Gbp2	DRSC06069	79777	3302
50	CG32833	DRSC04596	81094	3487
51	CG13615	DRSC14618	1.10e5	6249
52	Rab9Fb	DRSC19854	1.22e5	5869
53	esc	DRSC03529	81643	3952
54	ATPsynE	DRSC15476	76836	3605
55	CG18765	DRSC15392	1.45e5	6962
56	CG9040	DRSC11053	1.69e5	7867
57	CG3663	DRSC04402	83525	3629
58	BicD	DRSC02006	88100	3887
59	CG10939	DRSC06019	84654	3950
60	CG10803	DRSC17763	1832	884
61	Vps36	DRSC09785	1.24e5	6757
62	Gal	DRSC03134	1.35e5	4722
63	Muc30E	DRSC01101	1.22e5	6520
64	CG5756	DRSC06950	1.44e5	5191
65	Gbs-76A	DRSC11081	84271	3569
66	CG12126	DRSC06103	1.60e5	5524
67	CG17580	DRSC06683	1.16e5	4675
68	CG31793	DRSC02605	1.12e5	4634
69	Kr-h2	DRSC03356	1.43e5	5251
70	CG42331	DRSC14633	50510	3790
71	CG42331	DRSC16126	1.01e5	4862
72	CG17292	DRSC02594	98583	3729
73	Lgr3	DRSC15704	1.17e5	5712
74	Lgr3	DRSC15706	1.06e5	6286
75	sinah	DRSC09910	1.53e5	8261
76	CG30460	DRSC06559	1.33e5	4773
77	CG30460	DRSC06560	1.29e5	4101
78	CG33281	DRSC00421	1.44e5	5456
79	Sas-4	DRSC12505	1.25e5	6643
80	CG13727	DRSC10055	1.70e5	8737
81	CG9664	DRSC00725	79039	3962
82	sqd	DRSC15160	1.05e5	5510
83	sqd	DRSC17066	54010	4803
84	Nca	DRSC11233	1.27e5	5900
